# Paper PMC6925134
# Results are given in words; binding and its absence hold for the method and conditions named. In cells and extracts the contact can be indirect. For part of these data: Binding can be weak; no strength is given.
# B1: RNF208 (as used in the mapping of the Vimentin domains) (protein, UniProt Q9H0X6 1-261)
# chain: MPSDPGPEAGSGWPGLLMSCLKGPHVILKMEAMKIVHPEKFPELPAAPCFPPAPRPTPTLAPKRAWPSDTEIIVNQACGGDMPALEGAPHTPPLPRRPRKGSSELGFPRVAPEDEVIVNQYVIRPGPSASAASSAAAGEPLECPTCGHSYNVTQRRPRVLSCLHSVCEQCLQILYESCPKYKFISCPTCRRETVLFTDYGLAALAVNTSILSRLPPEALTAPSGGQWGAEPEGSCYQTFRQYCGAACTCHVRNPLSACSIM
# Key:
# Experiment in all cases: co-IP; RNF208 with head, rod and tail domains of Vimentin (Supplementary Fig. 7c); cells and antibodies not told
# [1] = target: tail domain of Vimentin (human)
# [2] = target: head domain of Vimentin (human)
# [3] = target: rod domain of Vimentin (human)
binder,measurement,setting,value
B1,binding,[1],no binding
same,binding,[2],binds
same,binding,[3],no binding
